Test results published in paper doi:10.1101/2022.07.19.500578.
No constants are given. Whether binding was seen depends on the method and setting. Binding seen in cells or lysates may run through a third protein.

The chains behind the UniProt entries cited, without tags or fusion partners. Where a name states a change or a piece, a line headed by the entry shows the natural chain unless it says otherwise. Residues count along the entry.
UniProt Q13467, 27-585, stated change not applied: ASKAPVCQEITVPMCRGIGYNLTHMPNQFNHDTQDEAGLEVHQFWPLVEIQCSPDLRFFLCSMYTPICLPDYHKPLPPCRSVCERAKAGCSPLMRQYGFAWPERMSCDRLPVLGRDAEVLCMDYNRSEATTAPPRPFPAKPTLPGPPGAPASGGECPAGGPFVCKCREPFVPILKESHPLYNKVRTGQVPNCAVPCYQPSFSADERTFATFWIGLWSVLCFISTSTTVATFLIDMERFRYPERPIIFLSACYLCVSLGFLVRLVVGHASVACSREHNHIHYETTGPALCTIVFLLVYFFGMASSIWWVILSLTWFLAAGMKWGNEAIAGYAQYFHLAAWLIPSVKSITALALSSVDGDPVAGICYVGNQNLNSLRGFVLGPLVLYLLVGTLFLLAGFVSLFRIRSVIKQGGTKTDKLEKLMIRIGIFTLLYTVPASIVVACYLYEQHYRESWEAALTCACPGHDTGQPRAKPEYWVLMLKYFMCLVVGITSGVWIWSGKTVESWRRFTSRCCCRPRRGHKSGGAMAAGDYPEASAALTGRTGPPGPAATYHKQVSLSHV

Molecular target: HA-FZD5-Nluc (UniProt Q13467)
Test: FRET or BRET

Substance: ΔDEP Venus-DVL2 (from UniProt O14641)
- binding: no binding
